According to paper PMC12045962:
No constants are given. Whether binding was seen depends on the method and setting. In cells and extracts the contact can be indirect. Some entries that bind do so weakly or less than the wild type.

Protein sequences, listed by entry. Tags and fused reporters are not part of them.
UniProt P22736: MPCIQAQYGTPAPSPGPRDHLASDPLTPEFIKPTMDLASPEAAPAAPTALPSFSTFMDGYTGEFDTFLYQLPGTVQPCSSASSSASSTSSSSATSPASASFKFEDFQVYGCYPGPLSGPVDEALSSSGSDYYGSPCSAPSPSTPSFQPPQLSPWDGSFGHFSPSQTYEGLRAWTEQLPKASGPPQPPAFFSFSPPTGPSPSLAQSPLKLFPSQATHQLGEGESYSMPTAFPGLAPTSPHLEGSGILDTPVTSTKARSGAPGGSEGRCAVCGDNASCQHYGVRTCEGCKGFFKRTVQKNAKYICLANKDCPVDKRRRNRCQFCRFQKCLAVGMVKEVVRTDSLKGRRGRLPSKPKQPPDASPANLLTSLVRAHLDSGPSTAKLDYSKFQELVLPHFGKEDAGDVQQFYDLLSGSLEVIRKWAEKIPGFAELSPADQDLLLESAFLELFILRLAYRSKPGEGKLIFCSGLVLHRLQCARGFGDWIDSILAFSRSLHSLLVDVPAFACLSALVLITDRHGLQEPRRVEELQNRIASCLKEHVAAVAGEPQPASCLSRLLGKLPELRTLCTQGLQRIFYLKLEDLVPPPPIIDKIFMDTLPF
UniProt P01100: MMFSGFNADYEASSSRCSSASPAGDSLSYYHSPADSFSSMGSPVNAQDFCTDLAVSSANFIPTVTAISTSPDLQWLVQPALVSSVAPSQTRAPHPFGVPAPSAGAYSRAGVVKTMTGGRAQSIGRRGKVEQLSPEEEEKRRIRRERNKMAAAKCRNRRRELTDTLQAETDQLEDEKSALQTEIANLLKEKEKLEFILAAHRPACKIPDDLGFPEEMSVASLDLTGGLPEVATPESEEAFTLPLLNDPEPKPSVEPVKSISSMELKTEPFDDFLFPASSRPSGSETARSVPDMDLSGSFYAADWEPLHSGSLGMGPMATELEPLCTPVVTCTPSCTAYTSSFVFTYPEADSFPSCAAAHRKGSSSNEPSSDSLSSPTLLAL

What was measured:
Flag-NR4A1 = Flag-NR4A1 (UniProt P22736); assay: co-IP; HEK293T cells transfected for 24 h with Flag-NR4A1 or HA-c-Fos alone or in combination; lysates (20 mM Tris-Cl pH 7.4, 1% Triton X-100, 1% sodium deoxycholate, 150 mM NaCl, 1 mM EDTA) immunoprecipitated with Flag or HA antibodies, protein A-agarose, 4 °C; western blot
[1] = molecular target: NR4A1 (human (endogenous in MCF7)) (UniProt P22736); assay: co-IP; MCF7 cells treated with 10 uM Csn-B or vehicle for 24 h; endogenous proteins; 500 ug lysate with 2 ug antibody overnight at 4 °C, protein A-agarose; western blot

## HA-c-Fos (from UniProt P01100 1-380)
Flag-NR4A1
  binding: binds

## c-Fos (from UniProt P01100 1-380)
[1]
  binding: binds
